In CN114685656A:
No constants are given. Whether binding was seen depends on the method and setting. Some entries that bind do so weakly or less than the wild type.

Protein sequences, listed by entry. Tags and fused reporters are not part of them. Residues count along the entry.
UniProt P78324, residues 31-370: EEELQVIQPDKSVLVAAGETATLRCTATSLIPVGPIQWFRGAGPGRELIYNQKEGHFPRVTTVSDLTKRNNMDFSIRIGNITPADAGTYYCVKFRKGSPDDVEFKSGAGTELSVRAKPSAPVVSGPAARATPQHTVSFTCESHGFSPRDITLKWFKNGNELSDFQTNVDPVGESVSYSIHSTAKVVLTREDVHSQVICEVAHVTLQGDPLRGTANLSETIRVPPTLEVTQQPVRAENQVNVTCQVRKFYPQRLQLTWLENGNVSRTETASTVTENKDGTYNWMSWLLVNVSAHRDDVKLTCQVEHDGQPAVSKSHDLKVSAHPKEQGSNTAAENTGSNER

B1: 52B3 (antibody, V domains shown)
VH: EVQLQQSGAELVRSGASVKMSCKASDYTFTSYNLHWVKQTPGQGLEWIGYIYPGNGNTKYSQKFKGKATLTADTSSSTAYMQISSLTSEDSAVYFCTRNYDYYFYTMGYWGQGTTVTVSS
VL: DIVLTQSPKFMSTSVGDRVNITCKASQDVCTAVAWYQQKPGQSPKLLIYSASYRYTGVPDRFTGSGSRTDFTFTISSVQAEDLAVYYCQQHYSTPLTFGAGTKLELK
B2: 36D6 (antibody, V domains shown)
VH: EVQLQESGPELKKPGETVKISCKASGYTFTKYGMNWVKQAPGKGLKWLAWINTDTGEAKYSDDFKGRFAFSLETSASIVYLQINNLKNEDTATYFCARGESYSNYVRFVYWGQGTTVTVSS
VL: DIVMTQSHKFMSTSVGDRVSITCKASQDVNTAVAWYQQKAGHSPKLLIYWTSTRHTGVPDRFTGSGSGTDYTLTISSVQAEDLTLYYCQQHYSTPWTFGGGTKLEIK
B3: 36G4 (antibody, V domains shown)
VH: EVQLVESGGGLVQPGGSLKLSCAASGFTFSNYGMSWVRQTPDKRLELVATINSNGGDTSYPDSVRGRFTISRDNAKNTLYLQMSSLKSEDTAMYYCTRGGWSWFAYWGQGTLVTVSA
VL: DIVLTQSPTSLAVSLGQRATISCRASESADSYGNSYMNWYQQKPGQPPKLLIYLASNLESGVPARFSGSGSRTDFTLTIDPVEADDAATYYCQQINEDPYTFGGGTKLEIK
B4: 40F3 (antibody, V domains shown)
VH: QVQLQQPGAELGKPGASVKLSCKASGYTFSSYYIYWLKQRPGQGLEWIGGINPSNDDTHLTEKFKSKATLIADRSSSTAYIQLSSLTSEDSAVYYCTRSYYANSWFAYWGQGTLVTVSA
VL: DIVLTQSPLSLPVSLGDQASISCRSSQTIVHSNGNTYLAWYLQKPGQSPKLLIYKVSNRFSGVPDRFSGSGSGTEFTLKISRVEAEDLGVYYCFQGSHVPYTFGGGTKLEIK

biological target: 重组hu-SIRPα-his (human) (UniProt P78324); test: ELISA on coated hu-SIRPα-his

binding, binds:
B1
B2
B3
B4
